Here are results for one molecule from publication PMC10539340, “A common human MLKL polymorphism confers resistance to negative regulation by phosphorylation” (Nature Communications, 2023).

No constants are given. Whether binding was seen depends on the method and setting. Some entries that bind do so weakly or less than the wild type.

The target of the experiment is Mouse MLKL S131P (mouse) (UniProt Q9D2Y4). In words: native gel or EMSA; Blue-Native PAGE (4-16% NativePAGE) of the crude membrane fraction solubilised in 1% digitonin, from immortalised MDFs stimulated with TNF + IFN-beta for 22 hours; immunoblot. In general terms: A gel shift assay detects complexes by their altered migration in electrophoresis.

B1: Mouse MLKL S131P (protein, UniProt Q9D2Y4 1-472)
chain: MDKLGQIIKLGQLIYEQCEKMKYCRKQCQRLGNRVHGLLQPLQRLQAQGKKNLPDDITAALGRFDEVLKEANQQIEKFSKKSHIWKFVSVGNDKILFHEVNEKLRDVWEELLLLLQVYHWNTVSDVSQPAPWQQEDRQDAEEDGNENMKVILMQLQISVEEINKTLKQCSLKPTQEIPQDLQIKEIPKEHLGPPWTKLKTSKMSTIYRGEYHRSPVTIKVFNNPQAESVGIVRFTFNDEIKTMKKFDSPNILRIFGICIDQTVKPPEFSIVMEYCELGTLRELLDREKDLTMSVRSLLVLRAARGLYRLHHSETLHRNISSSSFLVAGGYQVKLAGFELSKTQNSISRTAKSTKAERSSSTIYVSPERLKNPFCLYDIKAEIYSFGIVLWEIATGKIPFEGCDSKKIRELVAEDKKQEPVGQDCPELLREIINECRAHEPSQRPSVDGRSLSGRERILERLSAVEESTDKKV
For the molecule B1, the binding entry is on record as “binds”.
